The whole screen tested about 31,000 sequences, of which about 1,400 (4.5%) were called active.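 Rule for the calls: active = median seed-adjusted z-score above 1 or below -1; inactive = the rest.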 The list shows a part of the results.

The experiment is described as follows: Novel Modifiers of Survival Motor Neuron (SMN) Protein: Gene Identification via Genome-wide siRNA Screen.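 Note: luminescence tracks full-length SMN protein made from the SMN2 reporter.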 As to conditions: HEK293T SMN2-luciferase reporter, siRNA knockdown, 72 h; actives lie on both sides. A digest of the protocol:
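Each of three siRNAs per gene is reverse-transfected (1 pmol) into reporter HEK293T cells whose luciferase output tracks SMN protein level. After 72 h culture, ONE-Glo luminescence is control-normalized, log10-transformed and MAD-standardized; Common Seed Analysis deprioritizes seed-driven hits.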
On the technique in general: In a reporter assay the amount or activity of a reporter protein is the signal.
Take CAACCGCAGCGAGGAGUUUTT against TIMP1: the median seed-adjusted z-score was inactive: -0.0422.
For CAAUAGCUUUCACAAGCUUTT against SNX8 the value was inactive: 0.115.
For the sequence GUUUCUACAGCUACGCAUATT against RBL2, the median seed-adjusted z-score was inactive: 0.0211.
With GAUUUAUAAAUCGAAAUGATT against CSDA the figure was inactive: 0.
With GCACUUCCAUUAUCUGAAATT against FNTB, the median seed-adjusted z-score was inactive: -0.0163.
On to ACUCCAUCCUGAACCCUCATT against USP49, for which the median seed-adjusted z-score was inactive: 0.549.
As to AGUGGGAUGUGGUAAGCUATT against TRPV2, the median seed-adjusted z-score was inactive: -0.227.
As for GCACAAGCACUAACCUUAUTT against ZNF177, the median seed-adjusted z-score was inactive: 0.363.
For GCCUGGUACUACUAGCUUUTT against TRPC5 the value was active: -1.14; for GUAACAUCAAUGACUAUUATT against ZNF131, inactive: 0.645; for GUACAAGGAAUAUAUCAUUTT against PTGR1, inactive: 0.
Consider ACUCAAUCCUCGGACUUUUTT against NEUROD1, for which the median seed-adjusted z-score is inactive: 0.
Consider GAAUCGGACAAAGACAGAATT against PRKCB1, for which the median seed-adjusted z-score was inactive: 0.0463.
With CUGCUGCUCUGAAUCCGUUTT against TMEM86B the figure was inactive: -0.465.
On to CUAUGACGGUGUGUGACCATT against TIGD5, for which the median seed-adjusted z-score was inactive: 0.
Consider AGCUAAAUCCCAAGGAUGATT against PILRA, for which the median seed-adjusted z-score is inactive: 0.0834.
With GGAAACCCGUAGAUACAGATT against ZMAT1 the figure was inactive: -0.123.
As for GCAAUGACAAAGCAACAAATT against GTF2B, the median seed-adjusted z-score was inactive: -0.855.
On to CAAUAGAUCAAGUUAUACATT against KPNA5, for which the median seed-adjusted z-score is inactive: -0.174.
For the sequence GGAUCUUGCAAUCAAGCUATT against TARBP1, the median seed-adjusted z-score was inactive: 0.491.
For GCAAGAUCCGAGAAGAAUATT against TUBB, the median seed-adjusted z-score is inactive: -0.307.
As to GAUCAGAUGGGUCAAGAUATT against SMAD5, the median seed-adjusted z-score was inactive: -0.701.
Consider CCAACGACCUGGGCAAAAATT against MCAM, for which the median seed-adjusted z-score was inactive: -0.0884.
In the case of CUAUGGUCUAUGCACAAAATT against DHRS12, the median seed-adjusted z-score is inactive: 0.118.
As for CCAUGGAUUUUAUGAGGAATT against ECHDC1, the median seed-adjusted z-score is inactive: 0.554.
With GCAGGGAUCUUACAUCUAUTT against CENTD2, the median seed-adjusted z-score was inactive: -0.305.
GCCUCACCACCGAUGAGUATT against BLVRB: the median seed-adjusted z-score is inactive: 0.0133.
With AGACCGUAAUUAUCGUCCUTT against EDG1, the median seed-adjusted z-score is inactive: -0.316.
As to CGAUUAGUGGUUAAGACUUTT against OSCAR, the median seed-adjusted z-score is inactive: 0.114.
For CGGAGAUCUGGGCACUGUATT against ZNF696 the value was inactive: 0.17.
Consider GCAAAGAGGGUGACAAGUUTT against S100A4, for which the median seed-adjusted z-score is inactive: 0.567.
Take GCUCAUACCUCAUUCAACATT against ZNF565: the median seed-adjusted z-score is inactive: 0.457.
As for AGAGAAUACCUACAAAUGUTT against ZNF680, the median seed-adjusted z-score was inactive: 0.142.
As to GGCACUAGCUUGAGCCCAATT against QPRT, the median seed-adjusted z-score was inactive: 0.15.
Take CCAAGGCUCGUGACACUAATT against XPR1: the median seed-adjusted z-score was inactive: -0.024.
Regarding AGAGAGUGAUUGCUCUUGATT against IMMP2L, the median seed-adjusted z-score was inactive: 0.919.
For GCUUUUACAACAUUUCGAATT against SLC30A4 the value was inactive: 0.158.
Turning to CUAUAGUGGUUCAUCACAATT against GCNT1, the median seed-adjusted z-score was inactive: 0.463.
As for UAGAUUUCCUCGCCUAUGATT against GSTM4, the median seed-adjusted z-score was inactive: -0.204.
In the case of GAUGAUACCCUGAACUUCATT against SEMA6A, the median seed-adjusted z-score was inactive: -0.192.
With CCUCUGCUCUCGUUAGCUATT against TRPC4AP, the median seed-adjusted z-score is inactive: 0.106.
GUCGUCUCCUAAUCCUAUATT against RB1CC1: the median seed-adjusted z-score is inactive: 0.0878.
For GGACAUUAGAAGAGUCCAATT against PPM1D, the median seed-adjusted z-score is inactive: -0.66.
With GGCAUUUACCUGACUGAUUTT against ENTPD1, the median seed-adjusted z-score was inactive: 0.567.
As to GCAUGGAGAUGAUUUACGUTT against PIK3C3, the median seed-adjusted z-score is inactive: 0.
With GGUCACUUUUUAUUGUCCATT against ZNF621 the figure was inactive: 0; with CUACCAGGAUGUUGAUAAATT against ZNF761, inactive: 0.291; with GUAUCGUGGUGUCAGCUAUTT against JAK3, inactive: -0.0926.
For the sequence CAAUGUCCGUGAUCAUGAUTT against SARDH, the median seed-adjusted z-score is inactive: -0.195.
For the sequence GCAACGCCAGAAUCCAGCATT against FLT3LG, the median seed-adjusted z-score is inactive: -0.166.
In the case of UGGUAAUAAUGUCAAGAAATT against GPD1L, the median seed-adjusted z-score is inactive: 0.11.
As for GACCUGAAUUGUAUCAUCATT against MAPK3, the median seed-adjusted z-score was inactive: -0.573.
Take GCACAAGUUCUAAUGCUAATT against TTC5: the median seed-adjusted z-score was inactive: -0.296.
For the sequence “AAGUCUCAUUCGUGGUUGATT against ST6GALNAC6”, the median seed-adjusted z-score is inactive: 0.367.
With GGGAAUUUCUGACCUAGUATT against ABCD3 the figure was inactive: -0.24.
With ACCUGUUAAUGGCCUUUGUTT against SLC30A3 the figure was active: -1.26.
For the sequence CAGUGUAUUUUGCACGAGATT against TAOK1, the median seed-adjusted z-score is inactive: -0.0533.
For GGUCUAAAGGUGGAGAUAATT against EIF2C2, the median seed-adjusted z-score is inactive: -0.183.
In the case of ACAGAUCUAGAAGACCUCATT against NAT9, the median seed-adjusted z-score was inactive: -0.657.
As for CAGUCAGAAUGCACACCUATT against ZNF570, the median seed-adjusted z-score was inactive: 0.662.
Take CGACCUAGUUCACGAUGAATT against TEKT3: the median seed-adjusted z-score is inactive: 0.0494.
With GGCCUUACGCAUUUGCUGATT against RHOG the figure was inactive: -0.354; with AAUUGAUAUGUAUACAGAATT against GSTA3, inactive: 0.334.
With GAAUCGCAAAGGUAGAAUUTT against DNAH7, the median seed-adjusted z-score is inactive: 0.287.
As to CGAUGACAAAGUUUAUUCATT against FAM3B, the median seed-adjusted z-score was inactive: -0.327.
Regarding CCAACGGCAUCGACAUGAATT against KCNH2, the median seed-adjusted z-score was inactive: 0.1.
For GCCCAUUCUUUCAUCCGAATT against ZNF462 the value was inactive: 0.0487; for GCCUGCAAAAUGUUCCUCATT against VAV2, inactive: 0.975.
In the case of GCUGCGUCCAGGAAGAUUATT against PSMC6, the median seed-adjusted z-score is inactive: -0.578.
Turning to GAAGAAAAUGAAUCGAGAATT against HOXA10, the median seed-adjusted z-score is inactive: -0.112.
Take GGAUUGUUACAGUUCAGAATT against DDX58: the median seed-adjusted z-score is inactive: -0.113.
Turning to CAGCAAUUCUUAGUCUACUTT against FGG, the median seed-adjusted z-score is inactive: -0.043.
Regarding CGGCACUUUACUUCACAUATT against HMOX2, the median seed-adjusted z-score is inactive: 0.
With AUAUAUCUGCUGUACAUCATT against TRPV6 the figure was inactive: -0.511; with GCGUGAUCCCUUUACAGUUTT against GFPT1, inactive: 0.416; with AGAUAUCCAUCAUGCACUUTT against GPR77, inactive: 0.
With GGCUGGAAAACAUUCCCAATT against SLITRK1 the figure was inactive: 0.215; with CCAGUUUAUUGGAAACCGATT against NOP56, inactive: 0.307.
For CUCAAGGGCUGAAAAUAAATT against S100A6 the value was inactive: -0.264; for CUCCUACAUUUCAAGCAUATT against ALG8, inactive: -0.0604.
Take GCCCUUUCAUCUCACAGAUTT against ASNA1: the median seed-adjusted z-score is inactive: 0.357.
Consider CAUCCAUUCUACAUCCGUATT against VHL, for which the median seed-adjusted z-score was inactive: -0.0797.
Take GCAACGAAGACAUAAGAGATT against STX18: the median seed-adjusted z-score is inactive: -0.151.
For the sequence GAUCCGCACGGACUGCUUUTT against ACVRL1, the median seed-adjusted z-score is inactive: -0.361.
For the sequence GGCUUGAAAAGUAACGAAUTT against ZNF229, the median seed-adjusted z-score was inactive: -0.497.
Take GGAUUAUUCCUACCUAAUUTT against CDYL2: the median seed-adjusted z-score was inactive: -0.379.
Consider CCAGUGUACUCAGUCUAUUTT against STAM2, for which the median seed-adjusted z-score was inactive: -0.24.
On to GACAAAUGUUUGGUCAAUUTT against A2BP1, for which the median seed-adjusted z-score is active: 1.17.
Consider GCACGUUUGAGUACGAAUATT against SFPQ, for which the median seed-adjusted z-score is active: -1.15.
With AGAUCUUCAACUUGAUGAATT against RGS14, the median seed-adjusted z-score was inactive: 0.655.
Take GCAGAAUUACAAGACAAGATT against VWA5A: the median seed-adjusted z-score was inactive: 0.
As for AGUGCGUGAAUGUAUGUAATT against RASSF1, the median seed-adjusted z-score was inactive: -0.719.
Turning to CCAUCCUGAUAAGAACCCATT against DNAJA1, the median seed-adjusted z-score is inactive: -0.00548.
GCAAUGAAGUUAAAUGAGUTT against GSTO1: the median seed-adjusted z-score is inactive: 0.188.
Take CCCUCGGGAUCACACUUAUTT against MFSD1: the median seed-adjusted z-score is inactive: -0.0833.
Regarding CAGUCUACCUCGAACGCAUTT against USP42, the median seed-adjusted z-score was inactive: -0.0125.
As for GACCUUUGGUCAGAGCAGATT against ZNF506, the median seed-adjusted z-score is inactive: -0.235.
For GCUCAGAUCCCUUCCGACATT against LMX1A the value was inactive: 0.15.
With GGAUAUAAAAUUCGCUGUATT against BBS2 the figure was inactive: 0.
Consider GGAACCUCCUGUACGAGUATT against SARS2, for which the median seed-adjusted z-score was inactive: 0.524.
For GUACAUAGAUGAUUUACCATT against TM9SF3 the value was inactive: -0.267.
As to GCAAAGUCUAUGUUAGGUATT against GALNTL5, the median seed-adjusted z-score was inactive: -0.363.
As for GGCAAACUGACUCACGUUATT against ATP1B4, the median seed-adjusted z-score is inactive: 0.664.
On to CAUCUGCACUCACAAAUCATT against CBFA2T2, for which the median seed-adjusted z-score was inactive: -0.201.
For “CGAUGCCCAUGACUAUGUATT against ST6GALNAC2”, the median seed-adjusted z-score was inactive: 0.
With GCGACGACUUUGACUGGUUTT against CHPF, the median seed-adjusted z-score was inactive: 0.248.
Take GAUUAUACAUAUUUCGCAATT against BRCA2: the median seed-adjusted z-score was inactive: 0.
For GAGGUGCAGCGGUUCAUCATT against CYP2W1, the median seed-adjusted z-score is inactive: -0.0986.
